From publication PMC11879677
Results are given in words; binding and its absence hold for the method and conditions named. Binding seen in cells or lysates may run through a third protein. Some entries that bind do so weakly or less than the wild type.

T1: Modulo (Mod) (Drosophila (endogenous in Oregon-R ovaries)) (UniProt P13469)
T1 sequence: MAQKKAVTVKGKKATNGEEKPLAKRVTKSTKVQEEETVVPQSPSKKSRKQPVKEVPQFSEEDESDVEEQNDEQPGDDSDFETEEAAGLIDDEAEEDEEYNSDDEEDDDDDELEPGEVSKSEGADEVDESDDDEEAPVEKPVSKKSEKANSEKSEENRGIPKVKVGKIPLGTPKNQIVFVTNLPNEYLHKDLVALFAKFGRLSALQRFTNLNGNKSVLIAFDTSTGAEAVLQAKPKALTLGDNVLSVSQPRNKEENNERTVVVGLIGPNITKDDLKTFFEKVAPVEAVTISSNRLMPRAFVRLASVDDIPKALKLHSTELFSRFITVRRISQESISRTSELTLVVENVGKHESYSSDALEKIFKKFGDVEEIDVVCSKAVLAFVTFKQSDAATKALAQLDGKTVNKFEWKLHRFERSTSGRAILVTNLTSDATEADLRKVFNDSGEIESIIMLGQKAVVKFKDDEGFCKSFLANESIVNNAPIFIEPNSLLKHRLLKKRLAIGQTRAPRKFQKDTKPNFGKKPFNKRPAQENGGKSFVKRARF

T2: P-element induced wimpy testis (Piwi) (Drosophila (endogenous in Oregon-R ovaries)) (UniProt Q9VKM1)
T2 sequence: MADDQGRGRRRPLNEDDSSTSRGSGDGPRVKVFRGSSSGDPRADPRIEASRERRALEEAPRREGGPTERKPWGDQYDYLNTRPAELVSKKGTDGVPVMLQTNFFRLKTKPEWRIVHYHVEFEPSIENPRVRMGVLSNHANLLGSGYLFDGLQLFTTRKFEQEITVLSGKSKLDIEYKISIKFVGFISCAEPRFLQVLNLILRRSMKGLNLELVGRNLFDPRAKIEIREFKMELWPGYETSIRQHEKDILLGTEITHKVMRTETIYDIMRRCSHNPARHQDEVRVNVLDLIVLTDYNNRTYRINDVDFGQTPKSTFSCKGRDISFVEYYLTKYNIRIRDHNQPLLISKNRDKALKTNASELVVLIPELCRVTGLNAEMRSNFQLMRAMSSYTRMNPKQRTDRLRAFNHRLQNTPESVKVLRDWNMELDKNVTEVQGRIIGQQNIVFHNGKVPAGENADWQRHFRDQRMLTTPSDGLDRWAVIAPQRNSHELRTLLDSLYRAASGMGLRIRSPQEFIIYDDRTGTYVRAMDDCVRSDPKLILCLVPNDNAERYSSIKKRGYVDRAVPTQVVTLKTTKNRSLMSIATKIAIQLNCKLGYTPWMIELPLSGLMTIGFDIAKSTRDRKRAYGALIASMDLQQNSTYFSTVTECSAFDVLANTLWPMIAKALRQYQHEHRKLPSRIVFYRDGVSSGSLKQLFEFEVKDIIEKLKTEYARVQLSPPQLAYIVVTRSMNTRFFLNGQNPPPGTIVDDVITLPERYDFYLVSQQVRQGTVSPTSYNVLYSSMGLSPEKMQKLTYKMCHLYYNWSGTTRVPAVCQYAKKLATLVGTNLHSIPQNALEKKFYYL


Tests used:
[1] = target: T1, Modulo (Mod) (Drosophila (endogenous in Oregon-R ovaries)); assay: co-IP; Oregon-R ovary nuclear lysate (NLB: 50 mM Tris-HCl pH 7.5, 20 mM NaCl, 1 mM MgCl2, 1% NP-40; sonicated, Benzonase-treated); anti-Piwi or anti-Mod antibody against isotype IgG control, overnight at 4 °C, Protein A/G magnetic beads; immunoblot
[2] = target: T2, P-element induced wimpy testis (Piwi) (Drosophila (endogenous in Oregon-R ovaries)); assay: as above

| binding [1] | binding [2] | Binder |
| --- | --- | --- |
| binds |  | P-element induced wimpy testis (Piwi) (protein, UniProt Q9VKM1 1-843) MADDQGRGRRRPLNEDDSSTSRGSGDGPRVKVFRGSSSGDPRADPRIEASRERRALEEAPRREGGPTERKPWGDQYDYLNTRPAELVSKKGTDGVPVMLQTNFFRLKTKPEWRIVHYHVEFEPSIENPRVRMGVLSNHANLLGSGYLFDGLQLFTTRKFEQEITVLSGKSKLDIEYKISIKFVGFISCAEPRFLQVLNLILRRSMKGLNLELVGRNLFDPRAKIEIREFKMELWPGYETSIRQHEKDILLGTEITHKVMRTETIYDIMRRCSHNPARHQDEVRVNVLDLIVLTDYNNRTYRINDVDFGQTPKSTFSCKGRDISFVEYYLTKYNIRIRDHNQPLLISKNRDKALKTNASELVVLIPELCRVTGLNAEMRSNFQLMRAMSSYTRMNPKQRTDRLRAFNHRLQNTPESVKVLRDWNMELDKNVTEVQGRIIGQQNIVFHNGKVPAGENADWQRHFRDQRMLTTPSDGLDRWAVIAPQRNSHELRTLLDSLYRAASGMGLRIRSPQEFIIYDDRTGTYVRAMDDCVRSDPKLILCLVPNDNAERYSSIKKRGYVDRAVPTQVVTLKTTKNRSLMSIATKIAIQLNCKLGYTPWMIELPLSGLMTIGFDIAKSTRDRKRAYGALIASMDLQQNSTYFSTVTECSAFDVLANTLWPMIAKALRQYQHEHRKLPSRIVFYRDGVSSGSLKQLFEFEVKDIIEKLKTEYARVQLSPPQLAYIVVTRSMNTRFFLNGQNPPPGTIVDDVITLPERYDFYLVSQQVRQGTVSPTSYNVLYSSMGLSPEKMQKLTYKMCHLYYNWSGTTRVPAVCQYAKKLATLVGTNLHSIPQNALEKKFYYL |
|  | binds | Modulo (Mod) (protein, UniProt P13469 1-542) MAQKKAVTVKGKKATNGEEKPLAKRVTKSTKVQEEETVVPQSPSKKSRKQPVKEVPQFSEEDESDVEEQNDEQPGDDSDFETEEAAGLIDDEAEEDEEYNSDDEEDDDDDELEPGEVSKSEGADEVDESDDDEEAPVEKPVSKKSEKANSEKSEENRGIPKVKVGKIPLGTPKNQIVFVTNLPNEYLHKDLVALFAKFGRLSALQRFTNLNGNKSVLIAFDTSTGAEAVLQAKPKALTLGDNVLSVSQPRNKEENNERTVVVGLIGPNITKDDLKTFFEKVAPVEAVTISSNRLMPRAFVRLASVDDIPKALKLHSTELFSRFITVRRISQESISRTSELTLVVENVGKHESYSSDALEKIFKKFGDVEEIDVVCSKAVLAFVTFKQSDAATKALAQLDGKTVNKFEWKLHRFERSTSGRAILVTNLTSDATEADLRKVFNDSGEIESIIMLGQKAVVKFKDDEGFCKSFLANESIVNNAPIFIEPNSLLKHRLLKKRLAIGQTRAPRKFQKDTKPNFGKKPFNKRPAQENGGKSFVKRARF |
